Measured values from patent US20010049113A1, “Diagnosis and treatment of herpes infections” (priority 2000, published 2001).
At least one compound was matched to its structure with a doubt left.

Tested on: Akt phosphorylation
Assay: Akt phosphorylation in H-ras cells, Western blot
Format: cell-based, murine
Conditions: Wortmannin 200 nM

With COC[C@H]1OC(=O)c2coc3c2[C@@]1(C)C1=C(C3=O)[C@@H]2CCC(=O)[C@@]2(C)C[C@H]1OC(C)=O [Wortmannin] the Akt phosphorylation was “lack of Akt phosphorylation”.
